No constants are given. Whether binding was seen depends on the method and setting. Binding seen in cells or lysates may run through a third protein. Some results given as binding are weak or reduced against the parent protein; the word gives no strength.
T1: ribosomal P-stalk, P0-(P1-P2)2 complex (Drosophila) (Drosophila (endogenous in S2 cells)) (UniProt P19889+P08570+P05389)
T1 sequence 1: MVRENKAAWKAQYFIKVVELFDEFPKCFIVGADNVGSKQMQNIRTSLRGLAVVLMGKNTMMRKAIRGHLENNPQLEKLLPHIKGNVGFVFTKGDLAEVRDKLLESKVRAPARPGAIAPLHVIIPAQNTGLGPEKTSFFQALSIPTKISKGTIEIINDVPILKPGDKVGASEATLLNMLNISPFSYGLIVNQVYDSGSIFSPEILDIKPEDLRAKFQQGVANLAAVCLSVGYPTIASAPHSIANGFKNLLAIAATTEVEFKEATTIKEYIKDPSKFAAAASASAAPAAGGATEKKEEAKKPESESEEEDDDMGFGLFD
T1 sequence 2: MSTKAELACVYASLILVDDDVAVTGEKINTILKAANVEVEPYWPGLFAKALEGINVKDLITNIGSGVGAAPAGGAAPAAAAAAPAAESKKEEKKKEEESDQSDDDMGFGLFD
T1 sequence 3: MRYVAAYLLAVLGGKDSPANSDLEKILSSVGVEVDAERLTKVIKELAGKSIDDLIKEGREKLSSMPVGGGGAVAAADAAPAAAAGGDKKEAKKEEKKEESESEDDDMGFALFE

Chains of the proteins cited; added tags and fusions are not shown.
UniProt O16797: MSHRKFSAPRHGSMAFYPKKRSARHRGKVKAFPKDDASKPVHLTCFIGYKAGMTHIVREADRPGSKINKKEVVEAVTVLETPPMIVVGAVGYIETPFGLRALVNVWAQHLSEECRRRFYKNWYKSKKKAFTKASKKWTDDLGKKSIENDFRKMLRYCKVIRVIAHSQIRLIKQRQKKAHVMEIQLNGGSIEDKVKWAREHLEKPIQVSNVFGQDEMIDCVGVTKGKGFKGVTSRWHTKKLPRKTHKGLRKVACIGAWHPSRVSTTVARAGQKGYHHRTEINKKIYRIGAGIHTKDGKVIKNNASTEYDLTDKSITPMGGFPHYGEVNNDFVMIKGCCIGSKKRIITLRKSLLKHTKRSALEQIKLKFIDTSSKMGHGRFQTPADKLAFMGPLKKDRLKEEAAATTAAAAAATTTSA
UniProt P50880: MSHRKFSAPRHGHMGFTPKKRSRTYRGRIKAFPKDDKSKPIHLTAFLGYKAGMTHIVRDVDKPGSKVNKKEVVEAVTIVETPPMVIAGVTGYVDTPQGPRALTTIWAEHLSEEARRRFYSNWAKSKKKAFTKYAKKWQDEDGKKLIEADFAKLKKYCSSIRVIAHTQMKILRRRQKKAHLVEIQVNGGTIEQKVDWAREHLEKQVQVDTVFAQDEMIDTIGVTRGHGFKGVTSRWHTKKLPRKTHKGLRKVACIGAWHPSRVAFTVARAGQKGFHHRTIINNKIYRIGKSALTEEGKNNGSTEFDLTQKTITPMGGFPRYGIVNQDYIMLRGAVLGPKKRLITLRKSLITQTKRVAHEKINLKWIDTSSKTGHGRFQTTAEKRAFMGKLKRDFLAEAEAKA

T2: ribosomal P-stalk, P0-(P1-P2)2 complex (C. elegans) (C. elegans (endogenous in worms)) (UniProt Q93572+P91913+O01504)
T2 sequence 1: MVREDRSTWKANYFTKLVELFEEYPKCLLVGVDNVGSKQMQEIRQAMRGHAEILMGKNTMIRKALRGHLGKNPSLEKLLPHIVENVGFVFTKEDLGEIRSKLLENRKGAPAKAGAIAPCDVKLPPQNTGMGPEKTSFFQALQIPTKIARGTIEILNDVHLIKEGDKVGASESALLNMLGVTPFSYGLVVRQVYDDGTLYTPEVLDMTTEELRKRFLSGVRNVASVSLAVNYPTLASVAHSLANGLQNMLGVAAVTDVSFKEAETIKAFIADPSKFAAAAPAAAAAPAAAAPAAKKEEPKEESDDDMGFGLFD
T2 sequence 2: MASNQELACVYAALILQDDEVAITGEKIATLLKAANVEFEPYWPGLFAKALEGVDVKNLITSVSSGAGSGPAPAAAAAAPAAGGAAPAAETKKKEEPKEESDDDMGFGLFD
T2 sequence 3: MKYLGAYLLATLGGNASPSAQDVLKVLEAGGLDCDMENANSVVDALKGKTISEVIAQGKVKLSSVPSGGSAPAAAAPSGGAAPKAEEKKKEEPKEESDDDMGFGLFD

B1: ribosomal protein uS15 (Drosophila) (protein, UniProt Q03334 1-151)
chain: MGRMHAPGKGISQSALPYRRTVPSWLKLNADDVKEQIKKLGKKGLTPSKIGIILRDSHGVAQVRFVNGNKILRIMKSVGLKPDIPEDLYHMIKKAVAIRKHLERNRKDKDGKFRLILVESRIHRLARYYKTKSVLPPNWKYESSTASALVA
B2: ribosomal protein uS3 (C. elegans) (protein, UniProt P48152 1-247)
chain: MAANQNVTKKKKAVIGGIFKAELNNFLMKELAEDGYSGVEVRSTPARAEVIIMATRTQNVLGERGRRIKELTSVVQKRFGFEEGSVELYAEKVSNRGLCAVAQCESLRYKLVGGLAVRRACYGVLRFIMESGAQGVEVIVSGKLRGQRAKAMKFVDGLMIHSGHPVNDYIQQAVRHVQLRQGVIGIKVKIMLPYDPRGQNGPRNALPDHVQIVEPQEEVLPKEPHSQHKEEKKDVQVPAAQPVAPVQ
B3: ribosomal protein uS15 (C. elegans) (protein, UniProt P51404 1-151)
chain: MGRMHNPGKGMAKSAIPYRRSVPSWQKMTAEEVQDQIVKMAKKGLRPSQIGVILRDSHGVGQVRRLAGNKIFRILKSKGMAPELPEDLYHLVKKAVAIRKHLERSRKDIDSKYRLILVESRIHRLARYYKTKRQLPPTWKYESGTAASLVS

molecular target: T1, ribosomal P-stalk, P0-(P1-P2)2 complex (Drosophila) (Drosophila (endogenous in S2 cells)); experiment: co-IP; IP with 9D5 and Dynabeads Protein G from Drosophila S2 cell lysate, 4°C; 50 mM HEPES-NaOH pH 7.5, 10 mM MgCl2, 150 mM NaCl, 1% NP-40, cycloheximide; legend: in the presence of RNase A; western blotting

binding, binds:
ribosomal protein uL3 (Drosophila) (from UniProt O16797 1-416)
ribosomal protein uS3 (Drosophila) (from UniProt Q06559 1-246)
B1

molecular target: T2, ribosomal P-stalk, P0-(P1-P2)2 complex (C. elegans) (C. elegans (endogenous in worms)); experiment: co-IP; IP with 9D5 and Dynabeads Protein G from sonicated C. elegans lysate, 4°C; 50 mM HEPES-NaOH pH 7.5, 10 mM MgCl2, 150 mM NaCl, 1% NP-40, cycloheximide; legend: in the presence of RNase A; western blotting

binding, binds:
ribosomal protein uL3 (C. elegans) (from UniProt P50880 1-401)
B2
B3

Reference: publication PMC10415123
